Laboratory results published in US20050119461A1, “Novel receptor, and compounds which bind thereto” (THE UNIVERSITY OF MELBOURNE, priority 1997, published 2005).
For at least one compound, name, drawing or mass did not settle the structure.

System: I2-receptor
Assay: I2-receptor binding, [3H]-idazoxan displacement in rat brain homogenates
Protocol: Male WKY rats are stunned and decapitated.
Brain membranes prepared as above, are incubated in the presence of [^3H]-methoxyidazoxan (52-57 Ci/mmol) 0.5 nM or [^3H]-idazoxan (43-45Ci/mmol) 1.6 nM in Tris.HCl buffer pH 7.4 for α2-adrenoceptor and I2-receptor binding respectively. Inhibition of binding is measured in the presence of increasing amounts of test compound (0.1 nM to 1 mM). Non-specific binding is estimated by addition of 10 μM phentolamine or 100 μM cirazoline respectively. Membrane bound radioactivity is isolated and measured as above by vacuum filtration, washing and scintillation counting. Data is analysed by the “RADLIG” program.

c1ccc(C2CC2)c(OCC2=NCCN2)c1 [Cirazoline, 2-(2-cyclopropylphenoxymethyl)-imidazoline]
affinity for the I2-receptor (in words): high affinity (nM)
